Results as given in PubChem BioAssay AID1439 (NMMLSC, 2008).
In all, about 220,000 compounds went through this assay and about 770 (0.35%) were called active. The shares of active, inactive and inconclusive entries below differ from those in the screen. Rule as the data show it: active = binding response below about 49% or above about 150%; inconclusive = no clear call, values can overlap the other calls; inactive = in between.

Chains of the proteins cited; added tags and fusions are not shown.
UniProt P09471, whole entry, looked up: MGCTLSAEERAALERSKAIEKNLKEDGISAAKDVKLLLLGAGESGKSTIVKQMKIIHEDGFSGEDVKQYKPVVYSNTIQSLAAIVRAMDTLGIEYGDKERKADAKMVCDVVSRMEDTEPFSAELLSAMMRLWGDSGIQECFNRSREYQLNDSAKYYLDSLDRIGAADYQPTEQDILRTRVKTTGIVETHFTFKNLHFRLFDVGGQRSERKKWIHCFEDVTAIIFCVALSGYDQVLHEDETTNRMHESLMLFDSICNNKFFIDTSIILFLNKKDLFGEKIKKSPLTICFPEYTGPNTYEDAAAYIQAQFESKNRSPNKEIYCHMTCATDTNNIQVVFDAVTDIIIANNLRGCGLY

Biological target: Guanine nucleotide-binding protein G(o) subunit alpha (Homo sapiens) (UniProt P09471)
Experiment: RGS7-Galphao binding modulators, primary screen, biochemical, multiplexed bead flow cytometry (AID 1439);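 also: fluorescent Galphao held in activated GDP-AlF4 state binding bead-coupled RGS7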
Conditions: at 10 µM, actives lie on both sides

SMILES | binding response (% of control)
COc1ccc(-c2csc(-c3ccccc3)n2)c(OC)c1 | inactive: 102%
CCCCCCCC#Cc1ccccc1/C=N/S(=O)c1ccc(C)cc1 (stereo unspecified) | inactive: 97.3%
Cc1ccc(C(=O)NC(C(=O)Nc2cccc(S(N)(=O)=O)c2)C(C)C)cc1 (stereo unspecified) | inconclusive: 90.3%
COCCCNC(=S)N/N=C/c1ccc2ccccc2c1 | inconclusive: 145%
Cn1cc(-c2ccno2)c(C(=O)O)n1 | inconclusive: 97.6%
CCN1CCN(C(=O)c2ccc(OCC(=O)Nc3ccc(F)cc3)c(OC)c2)CC1 | inconclusive: 146%
CCn1nc(NC(=O)C2CCCO2)c2cc3cccc(C)c3nc21 (stereo unspecified) | inconclusive: 128%
CCn1c(C)nc2cc(C(=O)NNC(=S)Nc3ccc(F)cc3)ccc21 | inconclusive: 88%
CC(C)(C)NC(=O)C(c1ccccn1)N(C(=O)c1csnn1)C1CCCC1 (stereo unspecified) | inconclusive: 98.2%
O=C(NCCN=C1NS(=O)(=O)c2ccccc21)c1ccc2nccnc2c1 | inactive: 99.2%
Cc1cc(Nc2ccc(N3CCOCC3)cc2)c2cccc(C)c2n1 | inconclusive: 101%
CC(C)OC(=O)C(C)Nc1ccc(F)c(Cl)c1 (stereo unspecified) | inconclusive: 96.8%
CCOC(=O)c1ccccc1NC(=O)CSc1nc2c(c(=O)n(C)c(=O)n2C)n1C | inactive: 99.5%
CCS(=O)(=O)N1CCC(C(=O)O)CC1 | inconclusive: 100%
COc1ccc(NC(=O)CCN2C(=O)[C@@H]3[C@H](C2=O)[C@H]2C=C[C@@H]3C2)cc1 | inconclusive: 80.5%
COc1cccc(-n2c(SCC(=O)OC(C)C)nnc2-c2cccnc2)c1 | inactive: 93.2%
CCOc1cc([N+](=O)[O-])c2nc(N)sc2c1 | inconclusive: 93.4%
CS(=O)(=O)NNC(=O)Cn1nnc(-c2cc(C(F)(F)F)cc(C(F)(F)F)c2)n1 | inconclusive: 168%
CCCOc1ccc(N2C(=O)CC(N(Cc3ccccc3)N=O)C2=O)cc1 (stereo unspecified) | inconclusive: 178%
CN(C)S(=O)(=O)c1ccc(NC(=O)CN2CCc3ccccc32)cc1 | inconclusive: 107%
CC(C)OCC(O)CS(=O)(=O)Cc1ccccc1 (stereo unspecified) | inactive: 79.4%
N#CCn1c(CCl)nc2ccccc2c1=O | inconclusive: 119%
CCCNC(=O)N1CCCC(C(N)=O)C1 (stereo unspecified) | inactive: 100%

Two of these compounds, set out differently:
COCCCNC(=S)N/N=C/c1ccc2ccccc2c1
  binding response (% of control): inconclusive: 145%
CC(C)OCC(O)CS(=O)(=O)Cc1ccccc1 (stereo unspecified)
  binding response (% of control): inactive: 79.4%

(list continues)

SMILES | binding response (% of control)
O=C(NC1CCN(C(=O)c2cccs2)CC1)c1ccccc1 | inconclusive: 96.1%
O=C(OCC#Cc1c(COC(=O)c2ccccc2)nnn1Cc1ccccc1)c1ccccc1 | inconclusive: 117%
CCn1c(CNC(=O)Cc2ccc(OC)cc2)nnc1SCC(=O)c1ccccc1 | inconclusive: 80.8%
CC(C)N1CCC(N2CCN(Cc3ccc(-c4ccc(Cl)cc4)o3)CC2CCO)CC1 (stereo unspecified) | inactive: 91.5%
COc1ccc(C2/C=C\CN(S(=O)(=O)c3cccs3)CC(=O)N2Cc2ccc(F)cc2)cc1 (stereo unspecified) | inconclusive: 98.7%
CCn1c(=O)c(C(=O)CC#N)c(N)n(Cc2ccccc2)c1=O | inconclusive: 116%
CCOC(=O)CSCC(=O)Nc1nnc(-c2cccc([N+](=O)[O-])c2)s1 | inactive: 113%
CC[N+]1(CC(O)COC2CC(C)CC(C)(C)C2)CCOCC1 (stereo unspecified) | inconclusive: 133%
Cc1ccc(NC(=O)COC(=O)CCC(=O)c2cccs2)cc1C | inconclusive: 111%
COC(=O)Cc1ccc(NC(=S)NCCSc2ccc(Cl)cc2)cc1 | inconclusive: 17.7%
C=CCN(C(=O)CSc1nc2c(sc3ccccc32)c(=O)n1CCN(CC)CC)c1ccccc1 | inactive: 101%
NC1=NC[C@H](Cc2ccc(O)cc2)N1CCc1cccc(F)c1 | inconclusive: 92.1%
COCCCNC(=S)NCCNc1nc2c(C)c(C)ccc2cc1C#N | inactive: 99.2%
O=C(N/N=C/c1cccc([N+](=O)[O-])c1)c1cc(-c2ccc3c(c2)OCO3)n[nH]1 | inconclusive: 105%
COc1cc(CCC(C)=O)ccc1OC(=O)c1c(F)cccc1Cl | inconclusive: 124%
COC(=O)CC1C(=O)NCCN1Cc1cn(-c2ccc(C)cc2)nc1-c1cccc(C)c1 (stereo unspecified) | inactive: 99.8%
O=C(CSc1ccc(Cl)cc1)N1CCCC1 | inconclusive: 83%
O=c1cc(/N=C/c2coc3cc(Br)ccc3c2=O)[nH]c(=S)[nH]1 | inconclusive: 108%
O=C1CC(/C=C/c2ccncc2)=Nc2ccccc2N1 | active: 162% [activator]
CCC(C)(NC=O)C(=O)Nc1c(C)cccc1C (stereo unspecified) | inconclusive: 131%
CSC(=Nc1ccc(Cl)cc1)N[n+]1ccccc1 | inactive: 99.6%
Cc1ccnc(NC(=O)CSc2ccccn2)c1 | inconclusive: 152%
S=c1[nH]c2ccc(Cl)cc2s1 | inconclusive: 114%

SMILES | binding response (% of control)
NC(=O)c1c(NC(=O)CN2C(=O)NC(Cc3ccccc3)C2=O)sc2c1CCC2 (stereo unspecified) | inconclusive: 268%
COc1ccc(OCC(O)CNS(=O)(=O)c2cccc(Cl)c2)cc1 (stereo unspecified) | inconclusive: 100%
N#C/C(=C\c1cccnc1)C(=O)Nc1cccc(Cl)c1 | inconclusive: 89%
NC(=O)[C@@H]1CC2(CC(c3cccc(NC(=O)CC(c4ccccc4)c4ccccc4)c3)=NO2)CN1C(=O)[C@@H]1CCC(=O)N1 (stereo partly specified) | inconclusive: 109%
COc1ccc(NC(=O)N2CCOCC2)cc1OC | inactive: 101%
O=C(COC(=O)c1cc(S(=O)(=O)N2CCCCC2)ccc1N1CCOCC1)NC1CCS(=O)(=O)C1 (stereo unspecified) | inconclusive: 106%
O=[N+]([O-])c1ccc2[nH]c(O)c(N=NC3CS(=O)(=O)CC3O)c2c1 (stereo unspecified) | inconclusive: 145%
O=C(Nc1cccc(S(=O)(=O)N2CCCCC2)c1)c1ccc(S(=O)(=O)C(F)F)cc1 | inactive: 101%
COc1cccc(CN2CCN(Cc3ccc4c(NC(C)=O)cccc4n3)CC2CCO)c1 (stereo unspecified) | inactive: 101%
O=C(NCCOc1nc(N2CCOCC2)nc(N2CCOCC2)n1)Nc1ccccc1 | inactive: 104%
CC1(OC(=O)CCc2ccccc2)C(=O)C=C2C=C(c3ccc(C#N)cc3)N(Cc3ccccc3)C=C2C1=O (stereo unspecified) | inconclusive: 80.9%
Nc1cccc(/C=C/c2ccncc2)c1 | inconclusive: 105%
Cc1cc(Cl)ccc1OCC(=O)N(Cc1ccco1)C1CCS(=O)(=O)C1 (stereo unspecified) | inconclusive: 288%
CCSc1nc2cc(OC)c(OC)cc2c(=O)n1CCc1ccccc1 | inactive: 103%
O=C(NC(=O)N1CCSCC1)c1c(Cl)cccc1Cl | inconclusive: 81%
COC(=O)[C@@H]1C[C@@]2(O)[C@H](O)[C@H](O)[C@H](O)C[C@H]2N1Cc1cc(F)ccc1F | inconclusive: 84.2%
Cc1ccnc2nc(C(=O)OCC(=O)c3c[nH]c4ccccc34)nn12 | inconclusive: 103%
CCSc1nnc(NC(=O)C(NC(=O)c2ccc(Cl)cc2)C(C)C)s1 (stereo unspecified) | inactive: 97.4%
Cn1nnc(NC(=O)/C=C/c2ccco2)n1 | inconclusive: -128%
CN(c1ccccc1)S(=O)(=O)c1ccc(Cl)nc1 | inconclusive: 106%
CCC1(C)Cc2ccccc2-c2nc(NCCCO)[nH]c(=O)c21 (stereo unspecified) | inconclusive: 117%
CC(NC(=O)C(=O)N/N=C/c1ccccc1)c1ccccc1 (stereo unspecified) | inactive: 98.6%
COc1ccc(OCCC(=O)OCC(=O)NCc2ccc(F)cc2)cc1 | inconclusive: 77.7%

SMILES | binding response (% of control)
CC(c1ccco1)N(C(=O)c1ccccc1F)c1ccccn1 (stereo unspecified) | inconclusive: 98.7%
COc1ccc(NC(=S)NCCCCCC(=O)C[N+](=O)[O-])cc1 | inconclusive: 85.4%
CCCSC1=N/C(=C\c2ccc3c(c2)OCO3)C(=O)S1 | inactive: 110%
O=C(CCC(=O)OCC(=O)c1cccc([N+](=O)[O-])c1)NC1CCCCC1 | inconclusive: 114%
CC(=O)c1c(C)[nH]c(C(=O)Nc2ccc(S(=O)(=O)N(C)C)cc2)c1C | inconclusive: 111%
CNC(=O)C(=O)N/N=C/c1cccnc1 | inconclusive: 71.3%
CCOc1cccc(/C=N/Nc2nc(N3CCCC3)nc(N3CCCC3)n2)c1O | inconclusive: 99.9%
COc1ccc(CNC(=O)CCSCc2ccccc2C)cc1 | inactive: 98.4%
COc1ccc(C2=NNC(=Nc3cc(S(=O)(=O)N(C)C)ccc3C)SC2)c(OC)c1 | inconclusive: 278%
CC(CCc1ccccc1)NC(=O)CSc1ccccn1 (stereo unspecified) | inconclusive: 96.7%
CN(C)S(=O)(=O)c1ccc(NC(=O)CN2CCOCC2)cc1 | inconclusive: 107%
CN1CCN(c2ccc(S(=O)(=O)N3CCOCC3)cc2NC(=O)CCc2ccccc2)CC1 | inconclusive: 93.8%
CN(C)C(=S)Nc1ccc(Cl)cc1 | inconclusive: 107%
O=C1CCCc2cc3c(cc21)CC1(C3)Cc2cc3c(cc2C1)C(=O)CCC3 | inconclusive: -15.1%
O=C(OCc1cc([N+](=O)[O-])cc2c1OCOC2)c1ccc2ccccc2n1 | inconclusive: 86.3%
CCOc1cccc(CN2CCN(Cc3ccc(C)o3)C(CCO)C2)c1O (stereo unspecified) | inactive: 98.5%
Cc1ccc(Sc2c(C)nn(C(=O)c3cccc(S(=O)(=O)N4CCOCC4)c3)c2C)cc1 | inactive: 98.6%
Cc1nc2cc(-c3cccc(F)c3)nn2c(C)c1CCC(=O)N1CCN(c2ccccn2)CC1 | inconclusive: 103%
Nc1nc(NCc2ccco2)nc(N2CCN(Cc3ccccc3)CC2)c1[N+](=O)[O-] | inconclusive: 133%
CN(C)c1ccc(CNC(=O)C2CCC(CNc3c(N4CCCCC4)c(=O)c3=O)CC2)cc1 (stereo unspecified) | inconclusive: 127%
OCn1c2ccccc2c2ccccc21 | inconclusive: 99.3%
CC(O)[C@H]1CN=C(N)N1CCCCC1CCCCC1 (stereo partly specified) | inconclusive: 100%

A few values from the entries so far:
COCCCNC(=S)NCCNc1nc2c(C)c(C)ccc2cc1C#N – binding response (% of control): inactive: 99.2%
CC(O)[C@H]1CN=C(N)N1CCCCC1CCCCC1 (stereo partly specified) – binding response (% of control): inconclusive: 100%
